# Data published in PMC13043047.
# Results are given in words; binding and its absence hold for the method and conditions named. In cells and extracts the contact can be indirect. These calls come from enrichment with a bait or labelling near it, and not all partners need be listed.
# B1: signal peptidase complex catalytic subunit SEC11C (protein, UniProt Q9BY50 1-192)
# chain: MVRAGAVGAHLPASGLDIFGDLKKMNKRQLYYQVLNFAMIVSSALMIWKGLIVLTGSESPIVVVLSGSMEPAFHRGDLLFLTNFREDPIRAGEIVVFKVEGRDIPIVHRVIKVHEKDNGDIKFLTKGDNNEVDDRGLYKEGQNWLEKKDVVGRARGFLPYVGMVTIIMNDYPKFKYALLAVMGAYVLLKRES
# B2: signal peptidase complex subunit 1 (protein, UniProt Q9Y6A9 1-169)
# chain: MARGGDTGCTGPSETSASGAAAIALPGLEGPATDAQCQTLPLTVLKSRSPSPRSLPPALSCPPPQPAMLEHLSSLPTQMDYKGQKLAEQMFQGIILFSAIVGFIYGYVAEQFGWTVYIVMAGFAFSCLLTLPPWPIYRRHPLKWLPVQESSTDDKKPGERKIKRHAKNN
# B3: signal peptidase complex subunit 3 (protein, UniProt P61009 1-180)
# chain: MNTVLSRANSLFAFSLSVMAALTFGCFITTAFKDRSVPVRLHVSRIMLKNVEDFTGPRERSDLGFITFDITADLENIFDWNVKQLFLYLSAEYSTKNNALNQVVLWDKIVLRGDNPKLLLKDMKTKYFFFDDGNGLKGNRNVTLTLSWNVVPNAGILPLVTGSGHVSVPFPDTYEITKSY
# Target: LAP-tagged VP7 of human rotavirus DS1 strain (G2P[4]) (human rotavirus DS1 strain (G2P[4]))
# Test: affinity purification with mass spectrometry; tandem affinity purification from lysate of stable LAP-tagged DS-1 VP7 cells: anti-GFP immunoprecipitation, elution by TEV protease cleavage, recapture on S-protein agarose, gel slices, LC-MS/MS
row,Binder,binding
1,B1,binds
2,B2,binds
3,B3,binds
